Measured values published in PubChem BioAssay AID330 (DTP/NCI, 2004).
The list does not hold the whole screen: it is rich in T/C values a quarter to a half above the control, in often repeated tests (any T/C) and in doses without a T/C. Further doses and runs are listed elsewhere. T/C is the treated group as % of the vehicle group. Some doses have a count of surviving animals in place of a T/C: the source files T/C as zero there, which appears to mark a toxic dose or a test without result, not a measured value. Some doses without a T/C left all or most animals alive at the check, yet need not have been tolerated: survival well below the control is almost never listed, so the zero probably covers shortened survival too. Counts of survivors are from the toxicity check (mostly the fifth day) where no day follows; animals may have died later. Schedule codes are those of the source, read here as Q, the interval in days (D) or hours (H), X, the number of doses. Brackets with × say how often a value occurs here. Some entries hold several experiments; the results are listed from low to high. For survival time, the PubChem record calls one and a half times the control and up active, and a quarter to a half above the control has no call in these data; cut-offs in other NCI protocols can differ. Some T/C values carry the count of animals alive at the toxicity check (mostly the fifth day); without a count, all were alive then.

System: P388 leukemia ip, CD2F1 mice, survival T/C
Test: NCI In Vivo Anticancer Drug Screen. Data for tumor model P388 Leukemia (intraperitoneal) in CD2F1 (CDF1) mice
Details: T/C endpoint: median survival time, higher T/C = longer survival
[1] = dose: 200.0 mg/kg/injection, schedule: Q01DX005 (ip), vehicle: Klucel (hydroxypropylcellulose) (HPC)
[2] = dose: 400.0 mg/kg/injection, schedule: Q04DX002 (ip), vehicle: saline
[3] = dose: 100.0 mg/kg/injection, schedule: Q01DX005 (ip), vehicle: Klucel (hydroxypropylcellulose) (HPC)
[4] = dose: 200.0 mg/kg/injection, schedule: Q01DX009 (ip), vehicle: saline with Tween-80
[5] = dose: 200.0 mg/kg/injection, schedule: Q01DX005 (ip), vehicle: saline with Tween-80
[6] = dose: 200.0 mg/kg/injection, schedule: Q01DX009 (ip), vehicle: saline
[7] = dose: 100.0 mg/kg/injection, schedule: Q01DX005 (ip), vehicle: saline with Tween-80

How did the T/C (dose: 1.56 mg/kg/injection, schedule: Q01DX009 (ip), vehicle: water, evaluated on day 30) turn out when COc1cccc2c1C(=O)c1c(O)c3c(c(O)c1C2=O)C[C@@](O)(C(=O)CSc1nnc(C)s1)C[C@@H]3OC1CC(N)C(O)C(C)O1 (stereo partly specified) was run?
The T/C was 129 % of control.

And the T/C (dose: 1.56 mg/kg/injection, schedule: Q01DX009 (ip), vehicle: water, evaluated on day 45)?
Its T/C is 133 % of control.

And the T/C (dose: 3.13 mg/kg/injection, schedule: Q01DX009 (ip), vehicle: water, evaluated on day 30)?
Its T/C is 143 % of control.

And the T/C (dose: 3.13 mg/kg/injection, schedule: Q01DX009 (ip), vehicle: water, evaluated on day 45)?
Its T/C is 142 % of control.

And the T/C (dose: 6.25 mg/kg/injection, schedule: Q01DX009 (ip), vehicle: water)?
Its T/C is 146 % of control.

What about the survivor count (dose: 25.0 mg/kg/injection, schedule: Q01DX009 (ip), vehicle: water) of the same compound?
The survivor count was 6 of 6 (2×).

For CC(=O)Nc1ccc(C(=O)CN(Cc2ccccc2)Cc2ccccc2)cc1, which survivor count [1] is on record?
Its survivor count is 5 of 5.

How did the survivor count (dose: 200.0 mg/kg/injection, schedule: Q04DX002 (ip), vehicle: saline) turn out when CCOSN1CCOCC1 was run?
The survivor count was 1 of 6.

What about the survivor count [2] of the same compound?
The survivor count was 1 of 6.

O=S(=O)(c1ccc(N=C=S)cc1)c1ccc(N=C=S)cc1 was tested. Which T/C (dose: 50.0 mg/kg/injection, schedule: Q01DX005 (ip), vehicle: Klucel (hydroxypropylcellulose) (HPC)) did it give?
Its T/C is 125 [5 of 6 alive] and 126 % of control.

And the T/C [3]?
The T/C was 128 % of control [5 of 6 alive].

What about the survivor count [3] of the same compound?
The survivor count was 6 of 6.

And the survivor count [1]?
The survivor count was 0 of 6 and 2 of 6.

Which survivor count (dose: 200.0 mg/kg/injection, schedule: Q01DX001 (ip), vehicle: Klucel (hydroxypropylcellulose) (HPC)) does the source give for CC(O)CC1(c2ccccc2)CNC(=O)NC1=O (stereo unspecified) here?
Its survivor count is 6 of 6.

How did the survivor count (dose: 50.0 mg/kg/injection, schedule: Q01DX009 (ip), vehicle: saline with Tween-80) turn out when CCCCNC(=O)ON1C(=O)c2ccccc2C1=O was run?
Its survivor count is 2 of 6.

What about the survivor count (dose: 100.0 mg/kg/injection, schedule: Q01DX009 (ip), vehicle: saline with Tween-80) of the same compound?
Its survivor count is 0 of 6.

And the survivor count [4]?
The survivor count was 0 of 6.

CCCCCNc1ncnc2[nH]ncc12 was tested. Which survivor count [5] did it give?
The survivor count was 0 of 5.

What does the source list for CCC1CC(O)c2c(O)c3c(c(O)c2C1O)C(=O)c1cccc(O)c1C3=O (stereo unspecified) (tested in a mixture with another compound)?
survivor count (dose: 0.25 mg/kg/injection, schedule: Q01DX009 (ip), vehicle: other): 6 of 6; survivor count (dose: 0.5 mg/kg/injection, schedule: Q01DX009 (ip), vehicle: other): 4 of 6; survivor count (dose: 0.5 mg/kg/injection, schedule: Q04DX003 (ip), vehicle: other): 6 of 6; survivor count (dose: 1.0 mg/kg/injection, schedule: Q01DX009 (ip), vehicle: other): 6 of 6; survivor count (dose: 1.0 mg/kg/injection, schedule: Q04DX003 (ip), vehicle: other): 6 of 6; survivor count (dose: 2.0 mg/kg/injection, schedule: Q01DX009 (ip), vehicle: other): 0 of 6; survivor count (dose: 2.0 mg/kg/injection, schedule: Q04DX003 (ip), vehicle: other): 3 of 6; survivor count (dose: 4.0 mg/kg/injection, schedule: Q01DX009 (ip), vehicle: other): 0 of 6; survivor count (dose: 4.0 mg/kg/injection, schedule: Q04DX003 (ip), vehicle: other): 0 of 6; survivor count (dose: 250.0 micrograms/kg/injection, schedule: Q01DX009 (ip), vehicle: other): 6 of 6; survivor count (dose: 500.0 micrograms/kg/injection, schedule: Q01DX009 (ip), vehicle: other): 6 of 6

How did the survivor count (dose: 100.0 mg/kg/injection, schedule: Q01DX009 (ip), vehicle: saline) turn out when Cn1nccc1N was run?
The survivor count was 1 of 6.

And the survivor count [6]?
The survivor count was 0 of 6.

How did the survivor count (dose: 200.0 mg/kg/injection, schedule: Q01DX009 (ip), vehicle: other) turn out when CSCC(CO)NC(=O)/C=C/c1c(C)[nH]c(=O)[nH]c1=O (stereo unspecified) was run?
The survivor count was 6 of 6.

And the survivor count (dose: 400.0 mg/kg/injection, schedule: Q01DX009 (ip), vehicle: other)?
Its survivor count is 6 of 6.

CC1(C)CCCC12CCN1CCC([N+](=O)[O-])C12 (stereo unspecified) was tested. Which survivor count (dose: 184.0 mg/kg/injection, schedule: Q04DX003 (ip), vehicle: saline with Tween-80) did it give?
Its survivor count is 0 of 5.

Which survivor count [2] does the source give for O=C1CC(=O)NP(=O)(Oc2ccccc2)N1 here?
Its survivor count is 4 of 6.

How did the survivor count (dose: 25.0 mg/kg/injection, schedule: Q01DX005 (ip), vehicle: Klucel (hydroxypropylcellulose) (HPC)) turn out when CCCCCCCCCCCCCCC1(C(=O)OC)CO1 (stereo unspecified) was run?
The survivor count was 1 of 6.

What about the survivor count [3] of the same compound?
The survivor count was 0 of 6.

And the survivor count [1]?
The survivor count was 0 of 6.

Which results are given for C=C=CON1CCCCC1?
survivor count (dose: 100.0 mg/kg/injection, schedule: Q01DX005 (ip), vehicle: saline): 0 of 6; survivor count (dose: 200.0 mg/kg/injection, schedule: Q01DX005 (ip), vehicle: saline): 0 of 6

For Cc1c2c(C(N)=O)nccc2c(C)c2c1c1ccccc1n2Cc1ccccc1, which survivor count (dose: 6.25 mg/kg/injection, schedule: Q04DX003 (ip), vehicle: distilled water + Tween-80) is on record?
Its survivor count is 6 of 6.

And the survivor count (dose: 12.5 mg/kg/injection, schedule: Q04DX003 (ip), vehicle: distilled water + Tween-80)?
The survivor count was 6 of 6.

What about the survivor count (dose: 25.0 mg/kg/injection, schedule: Q04DX003 (ip), vehicle: distilled water + Tween-80) of the same compound?
The survivor count was 6 of 6.

And the survivor count (dose: 50.0 mg/kg/injection, schedule: Q04DX003 (ip), vehicle: distilled water + Tween-80)?
Its survivor count is 6 of 6.

For ICCCCCCCCCC[n+]1ccc2ccccc2c1, which survivor count [7] is on record?
Its survivor count is 3 of 5.

What about the survivor count [5] of the same compound?
Its survivor count is 0 of 5.

How did the T/C (dose: 75.0 mg/kg/injection, schedule: Q01DX009 (ip), vehicle: saline sonified) turn out when Cc1cccc(C(=O)OCCBr)c1 was run?
Its T/C is 127 % of control.

N#C/C(=C\c1cccs1)c1nc(-c2ccc(Cl)cc2)cs1 was tested. Which survivor count [6] did it give?
The survivor count was 6 of 6.

Which survivor count (dose: 100.0 mg/kg/injection, schedule: Q04DX002 (ip), vehicle: saline with Tween-80) does the source give for C=C1C(=O)OC2CC(C)C3C(OC(C)=O)CC(OC(C)=O)C3(C)CC12 (stereo unspecified) here?
Its survivor count is 5 of 6.

And the survivor count (dose: 200.0 mg/kg/injection, schedule: Q04DX002 (ip), vehicle: saline with Tween-80)?
The survivor count was 0 of 6.

What about the survivor count (dose: 400.0 mg/kg/injection, schedule: Q04DX002 (ip), vehicle: saline with Tween-80) of the same compound?
The survivor count was 0 of 6.

Which results are given for CCN(CC)Cc1c2c(O)c3c(O)c(C)c4c(c3c1O)C(=O)C(C)(O/C=C/C(OC)C(C)C(OC(C)=O)C(C)C(O)C(C)C(O)C(C)/C=C/C=C(\C)C(=O)N2)O4 (stereo unspecified)?
T/C (dose: 200.0 mg/kg/injection, schedule: Q01DX009 (ip), vehicle: Klucel (hydroxypropylcellulose) (HPC)): 125 % of control; survivor count (dose: 400.0 mg/kg/injection, schedule: Q01DX009 (ip), vehicle: saline with Tween-80): 6 of 6

Cc1cc(CN2CCN(CCO)CC2)c(O)c(CN2CCN(CCO)CC2)c1 was tested. Which survivor count (dose: 240.0 mg/kg/injection, schedule: Q01DX005 (ip), vehicle: saline) did it give?
Its survivor count is 0 of 6.

With C/C(=N/N=C(N)N)c1cn(C(=N)N)nc1C as the compound, how does the T/C (dose: 60.0 mg/kg/injection, schedule: Q01DX005 (ip), vehicle: Klucel (hydroxypropylcellulose) (HPC)) read?
The T/C was 127 % of control.

How did the survivor count (dose: 12.5 mg/kg/injection, schedule: Q01DX005 (ip), vehicle: saline with Tween-80) turn out when Cc1cc(=NC(C)(C)C)nc2c3ccccc3c(Cl)cn12 was run?
Its survivor count is 0 of 6.

What about the survivor count (dose: 25.0 mg/kg/injection, schedule: Q01DX005 (ip), vehicle: saline with Tween-80) of the same compound?
Its survivor count is 0 of 6.

And the survivor count (dose: 50.0 mg/kg/injection, schedule: Q01DX005 (ip), vehicle: saline with Tween-80)?
The survivor count was 0 of 6.

And the survivor count [7]?
Its survivor count is 0 of 6.

And the survivor count [5]?
Its survivor count is 0 of 6.

Which survivor count [1] does the source give for CC(C)C(NC(=O)C(CSCc1ccccc1)NC(=O)OCc1ccccc1)C(=O)O (stereo unspecified) here?
The survivor count was 2 of 6.

With CC(C)C(C#N)(C(=O)O)C(C)C as the compound, how does the survivor count [4] read?
Its survivor count is 5 of 6.

Which survivor count [6] does the source give for Cc1ccc(-n2nc(C)cc2C)nn1 here?
The survivor count was 3 of 6.

Which survivor count (dose: 100.0 mg/kg/injection, schedule: Q01DX005 (ip), vehicle: suspension in saline) does the source give for COc1ccc2c(c1)CCC(Cc1ccc(Cl)cc1)C2c1ccc(OCCN2CCCC2)cc1 (stereo unspecified) here?
The survivor count was 1 of 6.

And the survivor count (dose: 200.0 mg/kg/injection, schedule: Q01DX005 (ip), vehicle: suspension in saline)?
The survivor count was 0 of 6.

C=C1CC(c2ccc(S(=O)(=O)N3CCOCC3)cc2)OC1=O (stereo unspecified) was tested. Which survivor count [1] did it give?
Its survivor count is 1 of 6.
